Test results: publication PMC6106897, “Biocatalytic synthesis of acylated derivatives of troxerutin: their bioavailability and antioxidant properties in vitro” (Microbial Cell Factories, 2018)

Assay: Transport experiment in Caco-2 monolayers
Assay type: in vitro ADME
Settings: human
Procedure: The absorptions of troxerutin and its acylated derivatives was measured as described by Chen et al.. Caco-2 cells were cultured in DMEM supplemented with 10% FBS, 100 μg/mL streptomycin, and 100 U/mL penicillin at 37 °C in an atmosphere of 5% CO2 and the medium was changed every 2 days. Caco-2 cells used in this study were seeded onto 12-well translucent Transwell inserts (0.4 μm pore size, Corning Costar, Corning, NY, USA) at a density of 2.5 × 10^5 cells/mL and grown for 3 weeks. Transepithelial electrical resistance (TEER) and lucifer yellow were measured to detect the integrity of Caco-2 monolayers. TEER values were measured by using a voltammeter (Millicell ERS, Millipore, Bedford, MA, USA) and the amount of lucifer yellow transported to the basolateral side in a 2.5-h period was quantified by using a fluorospectrometer (Fluoroskan Ascent FL, Thermo Labsystems, Helsinki, Finland) at an excitation wavelength of 425 nm and emission wavelength of 530 nm. ALP activity was measured to detect the differentiation degree of Caco-2 monolayers by using an ALP Assay Kit.
Samples (100 μM, 0.5 mL) were placed on the apical (AP) side along with 1.5 mL of HBSS added to the basolateral (BL) side. […] The volume removed from the recipient side was replaced with fresh HBSS at 30, 60, 90, 120, and 150 min. The concentrations on the BL side were measured by HPLC. […]

- Papp A→B at 150 min, 100 μM: 8.5 ± 1.5 nm/s
- Papp B→A at 150 min, 100 μM: 8.6 ± 1.1 nm/s
SMILES: NS(=O)(=O)c1cc(C(=O)O)c(NCc2ccco2)cc1Cl [Furosemide, furosemide]
